# The whole screen tested about 400,000 compounds, of which about 5,500 (1.4%) were called active. Inconclusive results, whose numbers are uncertain, are shown with a selection of clear calls. The call rests on the fitted dose curve; in most records, active means well fitted cell-killing curve with a large enough effect; inconclusive means small, poorly fitted or top-dose-only effect, or effect the other way; inactive means flat fitted curve, though single readings scatter. Potencies of inconclusive entries are doubtful fits and often do not repeat.
# Assay: qHTS assay for MDR1-selective chemotherapeutics: Primary screen using the parental adenocarcinoma cell KB-3-1; further: nearly all actives have a fitted effect of over 60% in size
# Settings: KB-3-1 viability, CellTiter-Glo ATP luminescence, 72 h; activity change, negative = cytotoxic: at 46.1 µM (top of the series)
# Summary of the method: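 Here the drug-naive KB-3-1 line serves as comparator for MDR sub-line selectivity; cells received compound titrations, 72 h at 37 °C, then CellTiter-Glo readout.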
# On the % scale 0 is the no-effect control and ±100 the full control effect; potency means the concentration at half of the fitted maximal effect.
Structure (SMILES),"activity change, negative = cytotoxic",Potency
CN(C)c1cccc(C(=O)NCCCSc2ccccc2)c1,inactive: -1.81%,–
O=[N+]([O-])c1cccc(/C=N/n2c(C3CCCCC3)n[nH]c2=S)c1,inactive: -19.7%,–
CC(C)(Oc1ccc(Cl)cc1)C(=O)OCc1nc2ccsc2c(=O)[nH]1,inactive: 5.05%,–
CCOC(=O)[C@]12CCC=C1N(Cc1cccc3ccccc13)C(=O)[C@H](CC(=O)NCc1cccc(C(F)(F)F)c1)C2,–,"inconclusive: 18.4 µM [cytotoxic, single point]"
COCCOC(=O)C1=C(C)NC(=S)NC1/C=C/c1ccccc1 (centres undefined),inactive: 15.6%,–
Cc1ccc(NC(=S)N/N=C/c2ccc(OCCC(C)C)cc2)c(C)c1,inactive: -13.9%,–
Cc1ccc(C(c2c(C)n(C)n(-c3ccccc3)c2=O)c2c(C)n(C)n(-c3ccccc3)c2=O)s1,–,"inconclusive: 29.1 µM [cytotoxic, single point]"
COc1ccc(-c2nnc(SCC(=O)c3ccc(O)cc3O)o2)cc1,inactive: -2.61%,–
CN(C)c1ccc(NC(=S)c2ccccn2)cc1,–,active: 14.6 µM
O=C(N/N=C/c1ccco1)c1cc(-c2cccc(Br)c2)nc2ccccc12,–,"inconclusive: 29.1 µM [cytotoxic, single point]"
O=C1[C@H]2[C@@H](c3ccc(C(F)(F)F)cc3)N[C@]3(CCCN(Cc4ccc(Cl)cc4)C3=O)[C@H]2C(=O)N1Cc1ccccc1,–,"inconclusive: 29.1 µM [cytotoxic, single point]"
O=C(Nc1ncc(Cc2cccc(Cl)c2)s1)c1ccc([N+](=O)[O-])cc1,–,"inconclusive: 20.6 µM [cytotoxic, single point]"
CCOC(=O)c1ccc2[nH]c3c(c2c1)CN(C)CC3,–,"inconclusive: 23.1 µM [cytotoxic, single point]"
Cc1cc2c3c(c1C)C1(C(=O)N3C(C)(C)CC2C)C(C#N)=C(N)Oc2n[nH]c(C)c21 (centres undefined),–,"inconclusive: 29.1 µM [cytotoxic, single point]"
CC(=O)Nc1cccc(C(=O)OC(C(=O)c2ccc(C)c(C)c2)c2ccccc2)c1 (centres undefined),–,"inconclusive: 29.1 µM [cytotoxic, single point]"
CCn1c(SCc2ccc(OC)cc2)nnc1-c1ccncc1,inactive: -1.27%,–
Cc1cccc(N=C2NN=C(c3c(C)[nH]c4ccccc34)CS2)c1,inactive: 0%,–
Cn1c(N)c(S(=O)(=O)N2CCN(c3ccccc3F)CC2)c(=O)n(C)c1=O,–,"inconclusive: 29.1 µM [cytotoxic, single point]"
O=C(CC(=O)N/N=C/c1ccccc1O)NCc1cccnc1,–,"inconclusive: 29.1 µM [cytotoxic, single point]"
CCOc1cc(/C=N/NC(=O)C(C)Sc2ccccn2)ccc1O (centres undefined),–,"inconclusive: 16.4 µM [rising, single point]"
O=C(Nc1ccccc1Cl)c1cc(C2CCCCN2S(=O)(=O)c2ccc(F)cc2F)on1 (centres undefined),–,"inconclusive: 29.1 µM [cytotoxic, single point]"
Cc1ccc(OCCSc2nc3ccccc3n2CC(=O)N2CCOCC2)cc1C,inactive: 1.95%,–

Structure (SMILES),"activity change, negative = cytotoxic",Potency
CN(C)S(=O)(=O)c1ccc(Cl)c(NC(=O)COC(=O)c2ccc3c(c2)NC(=O)CS3)c1,–,"inconclusive: 13 µM [rising, partial curve, poor fit]"
Cc1c(CC(=O)NCCCCCC(=O)O)c(=O)oc2c(C)c3oc4c(c3cc12)CCCC4,–,"inconclusive: 20.6 µM [rising, single point]"
Cc1cc(NS(=O)(=O)c2ccc(NC(=O)COc3ccc(Cl)c(C)c3)cc2)no1,–,"inconclusive: 0.517 µM [rising, full curve]"
COCc1c(C#N)c(NCCc2ccc(F)cc2)nc(C)c1[N+](=O)[O-],–,"inconclusive: 20.6 µM [cytotoxic, single point]"
C=CCOCCN(C)C1=NS(=O)(=O)c2cc([N+](=O)[O-])ccc21,–,"inconclusive: 23.1 µM [cytotoxic, single point]"
COc1ccc(N2CCN(Cc3cc(=O)oc4cc(-c5ccccc5)c(O)cc34)CC2)cc1,–,"inconclusive: 29.1 µM [cytotoxic, single point]"
Cc1cc(NC(=O)NC(=O)c2ccccc2F)no1,–,"inconclusive: 2.31 µM [rising, partial curve]"
O=[N+]([O-])c1ccc(CN2CCN(c3ccccc3Cl)CC2)o1,inactive: -11%,–
O=C(Nc1cccc(NC(=O)c2ccccc2Cl)c1)c1ccc([N+](=O)[O-])o1,–,"inconclusive: 7.31 µM [cytotoxic, partial curve]"
Cc1ccc(N/N=C/c2cccnc2)cc1,–,"inconclusive: 29.1 µM [cytotoxic, single point]"
Cc1noc(C)c1C(=O)OCC(=O)NCCc1ccc(S(N)(=O)=O)cc1,inconclusive: 0%,–
Clc1ccc(CSc2nnc(Cn3cnc4ccccc43)o2)cc1,–,"inconclusive: 5.17 µM [cytotoxic, partial curve, poor fit]"
COc1ccc(N(CC(=O)N2CCC(Cc3ccccc3)CC2)S(C)(=O)=O)cc1,inactive: -17%,–
COc1cc(C(=O)OCc2cc(=O)n3ccsc3n2)cc(OC)c1OC,–,"inconclusive: 1.46 µM [cytotoxic, full curve, poor fit]"
CCOC(=O)CN1C(=O)S/C(=C/c2cccc([N+](=O)[O-])c2O)C1=O,–,"inconclusive: 29.1 µM [cytotoxic, single point]"
COc1cc(C(=O)N2CCC(n3c(C)nc4cc(F)ccc43)CC2)cc(OC)c1OC,–,"inconclusive: 2.59 µM [rising, single point]"
CC(Nc1nc(-c2ccccc2)nc2ccccc12)c1ccccc1 (centres undefined),–,"inconclusive: 29.1 µM [cytotoxic, single point]"
COc1ccccc1NC(=O)C(=O)NCC(c1ccco1)N1CCc2ccccc21 (centres undefined),inactive: -22.8%,–
O=C(NNC(=O)c1cccs1)c1cccnc1,–,"inconclusive: 29.1 µM [rising, single point]"
CCCC(NC(=O)C(C)Sc1nnnn1C1CC1)c1ccccc1 (centres undefined),inactive: -5.37%,–
O=c1[nH]c(/C(Cl)=C/c2cccc(F)c2)nc2cc(C(F)(F)F)ccc12,–,"inconclusive: 29.1 µM [cytotoxic, single point]"
COc1ccc(C(=O)OCC(=O)c2ccc3c(c2)NC(=O)CO3)cc1[N+](=O)[O-],–,"inconclusive: 25.9 µM [rising, single point]"

# Of the compounds above, 2 contain a cyano group:
Structure (SMILES),"activity change, negative = cytotoxic",Potency
Cc1cc2c3c(c1C)C1(C(=O)N3C(C)(C)CC2C)C(C#N)=C(N)Oc2n[nH]c(C)c21 (centres undefined),–,"inconclusive: 29.1 µM [cytotoxic, single point]"
COCc1c(C#N)c(NCCc2ccc(F)cc2)nc(C)c1[N+](=O)[O-],–,"inconclusive: 20.6 µM [cytotoxic, single point]"
